Data taken from US5786367A, “Cyclic amide derivatives” (Otsuka Pharmaceutical Co., Ltd., priority 1994, dated 1998).
For at least one compound, name, drawing or mass did not settle the structure.

Tested on: skin homogenate of guinea pig
Test: Activity for inhibiting the formation of lipid peroxides (ultraviolet-B irradiated skin homogenate, TBA method)
Type: biochemical, albino guinea pig (Hartley strain, female)
Settings: test compound 10^-4 M; UV 9.5 mW/cm^2, 60 minutes

For `C=CCc1cc2oc(=O)n(CC=C)c2c(CC=C)c1O` [Example 38, 5-hydroxy-3,4,6-triallylbenzoxazolinone], which “Inhibition rate of lipid peroxide formation” value is on record?
Its value is 80%.
